Laboratory results reported in PubChem BioAssay AID248 (DTP/NCI, 2004).
The list is a part of this screen's results and no random one: it is rich in T/C values a quarter to a half above the control, in often repeated tests (any T/C) and in doses without a T/C. Other doses and runs of a compound stand elsewhere. T/C is the treated group as % of the vehicle group. Some entries give survivors of the animals treated and no T/C: the source files T/C as zero there, which appears to mark a toxic dose or a test without result, not a measured value. Some doses without a T/C left all or most animals alive at the check, yet need not have been tolerated: the source hardly ever lists a survival T/C far under the control, and the zero likely stands for such cases as well. Counts of survivors are from the toxicity check (mostly the fifth day) where no day follows; animals may have died later. Schedules are NCI's codes, read here as Q, the interval in days (D) or hours (H), X, the number of doses. Some schedule codes hold Z or #, which are not explained here. Additions like (4×) give the number of equal values in this list. Where survival is the endpoint, this PubChem deposit counts one and a half times the control or more as active, and values a quarter to a half above the control carry no call in these data; other NCI protocols may use other cut-offs.

System: L1210 leukemia ip in BDF1 mice, survival T/C
Experiment: NCI In Vivo Anticancer Drug Screen. Data for tumor model L1210 Leukemia (intraperitoneal) in B6D2F1 (BDF1) mice
Conditions: T/C endpoint: mean survival time, higher T/C = longer survival
[1] = dose: 400.0 mg/kg/injection, schedule: Q04DX003 (ip), vehicle: Klucel (hydroxypropylcellulose) (HPC)
[2] = dose: 200.0 mg/kg/injection, schedule: Q01DX001 (ip), vehicle: saline
[3] = dose: 400.0 mg/kg/injection, schedule: Q01DX001 (ip), vehicle: saline
[4] = dose: 400.0 mg/kg/injection, schedule: Q04DX003 (ip), vehicle: saline
[5] = dose: 400.0 mg/kg/injection, schedule: Q04DX003 (ip), vehicle: saline with Tween-80
[6] = dose: 300.0 mg/kg/injection, schedule: Q01DX001 (ip), vehicle: saline
[7] = dose: 100.0 mg/kg/injection, schedule: Q01DX009 (ip), vehicle: saline
[8] = dose: 200.0 mg/kg/injection, schedule: Q01DX009 (ip), vehicle: saline
[9] = dose: 400.0 mg/kg/injection, schedule: Q01DX009 (ip), vehicle: saline

## C=CCc1ccc(OCCOCCNC2C(C)CCCC2(C)C)c(OC)c1 (configuration not stated)
dose: 100.0 mg/kg/injection, schedule: Q04DX003 (ip), vehicle: Klucel (hydroxypropylcellulose) (HPC)
  survivor count: 0 of 6
dose: 200.0 mg/kg/injection, schedule: Q04DX003 (ip), vehicle: Klucel (hydroxypropylcellulose) (HPC)
  survivor count: 0 of 6
[1]
  survivor count: 0 of 6

## CCN(CC)c1ccc(SC#N)cc1
[2]
  survivor count: 0 of 4
[3]
  survivor count: 0 of 4

## C[n+]1ccc(/C(N)=N/O)cc1
[4]
  survivor count: 3 of 6

## CC(=O)OC1CCC(OC(C)=O)C(C#N)(C#N)C1(C#N)C#N (configuration not stated)
[5]
  survivor count: 2 of 6

## C=CC(=O)[O][Pb]([CH2]C)([CH2]C)[CH2]C
dose: 25.0 mg/kg/injection, schedule: Q04DX002 (ip), vehicle: Klucel (hydroxypropylcellulose) (HPC)
  survivor count: 0 of 3
dose: 50.0 mg/kg/injection, schedule: Q04DX002 (ip), vehicle: Klucel (hydroxypropylcellulose) (HPC)
  survivor count: 0 of 3
dose: 100.0 mg/kg/injection, schedule: Q04DX002 (ip), vehicle: Klucel (hydroxypropylcellulose) (HPC)
  survivor count: 0 of 3
dose: 200.0 mg/kg/injection, schedule: Q04DX002 (ip), vehicle: Klucel (hydroxypropylcellulose) (HPC)
  survivor count: 0 of 3
dose: 400.0 mg/kg/injection, schedule: Q04DX002 (ip), vehicle: Klucel (hydroxypropylcellulose) (HPC)
  survivor count: 0 of 3

## CCOc1ccc(OC/C=C(\C)CCC=C(C)C)cc1
dose: 400.0 mg/kg/injection, schedule: Q01DX009 (ip), vehicle: saline with Tween-80
  survivor count: 3 of 3

## N=c1c2ncn(C3OC(CO)C(O)C3O)c2ncn1O (configuration not stated)
[2]
  survivor count: 0 of 4
[6]
  survivor count: 2 of 6
[3]
  survivor count: 0 of 4

## O=C(O)c1c(O)c(-c2ccccc2)nc2ccccc12
[1]
  survivor count: 2 of 6

## C=CCOC(=O)COCC(=O)OCC=C
[4]
  survivor count: 0 of 6

## CCN(CC)c1ccc(C(=O)OCCNC2CCCCC2)cc1
dose: 300.0 mg/kg/injection, schedule: Q01DX001 (ip), vehicle: carboxymethylcellulose (CMC)
  survivor count: 2 of 6

## O=C(O)/C(Br)=C/C(=O)c1ccccc1
dose: 150.0 mg/kg/injection, schedule: Q01DX001 (ip), vehicle: steroid suspending solution
  survivor count: 3 of 6

## CC1NCCNCCNCCNC(C)c2cccc1n2 (configuration not stated)
dose: 100.0 mg/kg/injection, schedule: Q04DX002 (ip), vehicle: saline
  survivor count: 1 of 3
dose: 200.0 mg/kg/injection, schedule: Q04DX002 (ip), vehicle: saline
  survivor count: 0 of 3
dose: 400.0 mg/kg/injection, schedule: Q04DX002 (ip), vehicle: saline
  survivor count: 0 of 3

## CCc1cccc(CC)c1NC(=O)CS
[5]
  survivor count: 1 of 6

## O=C(O)c1ccccc1Br.[Ni]
dose: 12.5 mg/kg/injection, schedule: Q01DX009 (ip), vehicle: Klucel (hydroxypropylcellulose) (HPC)
  survivor count: 6 of 6
dose: 50.0 mg/kg/injection, schedule: Q01DX009 (ip), vehicle: Klucel (hydroxypropylcellulose) (HPC)
  survivor count: 6 of 6
dose: 100.0 mg/kg/injection, schedule: Q01DX001 (ip), vehicle: Klucel (hydroxypropylcellulose) (HPC)
  survivor count: 2 of 6
dose: 200.0 mg/kg/injection, schedule: Q01DX001 (ip), vehicle: Klucel (hydroxypropylcellulose) (HPC)
  survivor count: 0 of 6
dose: 400.0 mg/kg/injection, schedule: Q01DX001 (ip), vehicle: Klucel (hydroxypropylcellulose) (HPC)
  survivor count: 0 of 6

## Cc1ccc(/C=N/N=C(N)N)cc1
dose: 120.0 mg/kg/injection, schedule: Q01DX Z (ip), vehicle: saline
  survivor count: 0 of 6

## NC(N)=N/N=C(/c1ccccc1)c1ccc(Cl)cc1
dose: 480.0 mg/kg/injection, schedule: Q01DX Z (ip), vehicle: saline
  survivor count: 5 of 6
dose: 480.0 mg/kg/injection, schedule: Q01DX Z (oral), vehicle: saline
  T/C: 133 % of control

## Nc1nc(N)c(-c2ccc(Cl)c(Cl)c2)c(C[P+](c2ccccc2)(c2ccccc2)c2ccccc2)n1
dose: 150.0 mg/kg/injection, schedule: Q01DX001 (ip), vehicle: saline
  survivor count: 1 of 6
[6]
  survivor count: 2 of 6

## CCC1(C)CC(=O)NC(=O)C1.[Tl]
dose: 12.5 mg/kg/injection, schedule: Q01DX009 (ip), vehicle: water
  survivor count: 4 of 6

## O=C(O)C1(NO)CCCC1
[2]
  T/C: 126 % of control

## Nc1ccc2c(c1)Cc1c(F)ccc(F)c1-2
dose: 400.0 mg/kg/injection, schedule: Q01DX001 (ip), vehicle: carboxymethylcellulose (CMC)
  survivor count: 1 of 4

## NNC(=O)Cc1csc2ccccc12
dose: 187.0 mg/kg/injection, schedule: Q01DX Z (ip), vehicle: carboxymethylcellulose (CMC)
  survivor count: 5 of 6

## O=C(/C=C/c1cccc(Br)c1)c1ccc(Cl)cc1
dose: 400.0 mg/kg/injection, schedule: Q04DX003 (ip), vehicle: other
  survivor count: 6 of 6

## CC(=O)O[C@@]1(C)C(=O)OCC2=CCN3CC[C@@H](OC(=O)[C@H](C)[C@]1(C)OC(C)=O)[C@@H]23
[2]
  survivor count: 0 of 4
[3]
  survivor count: 0 of 4

## O=C1Cc2ccccc2CN1
dose: 300.0 mg/kg/injection, schedule: Q01DX001 (ip), vehicle: acetone
  survivor count: 2 of 6

## NCCc1cc2c3c(c1)CCCN3CCC2
dose: 12.5 mg/kg/injection, schedule: Q01DX009 (ip), vehicle: saline
  survivor count: 3 of 6
dose: 25.0 mg/kg/injection, schedule: Q01DX009 (ip), vehicle: saline
  survivor count: 0 of 6
dose: 50.0 mg/kg/injection, schedule: Q01DX001 (ip), vehicle: saline
  survivor count: 2 of 6
dose: 100.0 mg/kg/injection, schedule: Q01DX001 (ip), vehicle: saline
  survivor count: 0 of 6
[2]
  survivor count: 0 of 6
[3]
  survivor count: 0 of 6

## Nc1ccc2cc(O)ccc2c1
dose: 100.0 mg/kg/injection, schedule: Q01DX009 (ip), vehicle: saline with Tween-80
  survivor count: 3 of 3
dose: 200.0 mg/kg/injection, schedule: Q01DX009 (ip), vehicle: saline with Tween-80
  survivor count: 0 of 3

## CC(=O)Oc1cccc2cc3cc(C)cc(OC(C)=O)c3c(OC(C)=O)c12
dose: 10.0 mg/kg/injection, schedule: Q01DX001 (ip), vehicle: saline
  survivor count: 2 of 6
dose: 20.0 mg/kg/injection, schedule: Q01DX001 (ip), vehicle: saline
  survivor count: 1 of 6
dose: 40.0 mg/kg/injection, schedule: Q01DX001 (ip), vehicle: saline
  survivor count: 0 of 6
dose: 80.0 mg/kg/injection, schedule: Q01DX001 (ip), vehicle: saline
  survivor count: 0 of 6

## NC(=O)N(CCCCN(N=O)C(N)=O)N=O
dose: 26.0 mg/kg/injection, schedule: Q01DX001 (ip), vehicle: saline with Tween-80
  T/C: 140 % of control
dose: 187.0 mg/kg/injection, schedule: Q01DX001 (ip), vehicle: saline with Tween-80
  survivor count: 9 of 10
dose: 250.0 mg/kg/injection, schedule: Q01DX001 (ip), vehicle: saline with Tween-80
  survivor count: 10 of 10
dose: 375.0 mg/kg/injection, schedule: Q01DX001 (ip), vehicle: saline with Tween-80
  survivor count: 10 of 10

## CN(C)CCN(C)C(=O)C(c1ccccc1)C1CCCCC1 (configuration not stated)
[6]
  survivor count: 1 of 6

## c1ccc(CNCc2cccnc2)cc1
dose: 300.0 mg/kg/injection, schedule: Q01DX009 (ip), vehicle: other
  survivor count: 0 of 6

## O=NN(CCCl)C(=O)NC(Cc1ccccc1)C(=O)O (configuration not stated)
dose: 18.0 mg/kg/injection, schedule: Q01DX001 (ip), vehicle: gum acacia
  T/C: 134 % of control
dose: 266.0 mg/kg/injection, schedule: Q01DX001 (ip), vehicle: gum acacia
  survivor count: 5 of 10
dose: 400.0 mg/kg/injection, schedule: Q01DX001 (ip), vehicle: gum acacia
  survivor count: 1 of 10

## Cc1cc2cccc[n+]2cc1C
dose: 50.0 mg/kg/injection, schedule: Q01DX009 (ip), vehicle: saline
  survivor count: 3 of 6
[7]
  survivor count: 0 of 6
[8]
  survivor count: 0 of 6
[9]
  survivor count: 0 of 6

## CCN(CC)Cc1cc(Nc2c(C)cnc3cc(Cl)ccc23)ccc1O
[7]
  survivor count: 3 of 6 (2×)
[8]
  survivor count: 0 of 6
[9]
  survivor count: 0 of 6

## CC(CN)N(C)C (configuration not stated)
[4]
  survivor count: 1 of 6

## CC1(ON(c2cc(Cl)cc(Cl)c2)C2(C)c3ccccc3-c3ccccc32)c2ccccc2-c2ccccc21
[5]
  survivor count: 6 of 6
